Results taken from US8242282B2, “Histone deacetylase inhibitors” (Taipei Medical University, priority 2010, dated 2012).
Some of these results come from one statement about several compounds together.

Tests used:
acetyl-H3 protein = test: In vitro acetyl-H3 protein expression (Western blot); assay type: cell-based; conditions: IMR90 cells
[1] = system: histone deacetylase (HDAC); test: HDAC inhibition assay (Fluor de Lys fluorescent assay, HeLa lysate); assay type: biochemical; conditions: at the concentration of 10^−5 M or even lower
Method: The histone deacetylase (HDAC) activity was measured in HeLa lysate suspensions using a Fluor de Lys™ fluorescent assay system (Biomol, Enzo Life Sciences; PA, USA) with some modification as described previously (Pflum et al., 2007). In brief, HeLa lysate (1.5 μl) were preincubated in the presence of test compound or vehicle (DMSO, 0.2% v/v) at 30° C. for 10 minutes, therefore Fluor de Lys™ substrate (125 μM) was added and incubated at 37° C. under shaking for 45 minutes. Finally, the developer reagent (95 μl, 1×) was immediately added to the same aliquot of the reaction mixture for another 10 minutes. The extent of deacetylated substrate formation was monitored by a microplate fluorescence reader (Thermo Varioskan Flash, Thermofisher; MA, USA) to determine the fluorescence intensity (excitation at 360 nm, emission at 460 nm). The results were expressed as the percent inhibition of the rate of deacetylated substrate formation on the reacting interval. […] See Bieliauskas et al., Bioorg. Med. Chem. Lett., 2007, 17: 2216-2219.

With `O=C(CCCc1ccccc1)NO` [Compound 1, N-hydroxy-4-phenylbutanamide] the acetyl-H3 protein induction (acetyl-H3 protein) was “promoted acetyl-H3 protein induction”.
For `CC(C)(C)OC(=O)NC(Cc1ccc(O)cn1)C(=O)Nc1ccc(CCCC(=O)NO)cc1` (stereo not shown) [Compound 4, tert-butyl-1-(4-(4-(hydroxyamino)-4-oxobutyl)phenylamino)-3-(5-hydroxypyridin-2-yl)-1-oxopropan-2-ylcarbamate], the HDAC inhibitory activity [1] was “showed HDAC inhibitory activities” and the acetyl-H3 protein induction (acetyl-H3 protein) was “promoted acetyl-H3 protein induction”.
For `CC(C)(C)OC(=O)NC(Cc1ccc(OCc2ccccc2)cn1)C(=O)NCc1ccc(C(=O)NO)cc1` (stereo not shown) [Compound 7, tert-butyl 3-(5-(benzyloxy)pyridin-2-yl)-1-(4-(hydroxycarbamoyl)benzylamino)-1-oxopropan-2-ylcarbamate], the HDAC inhibitory activity [1] was “showed HDAC inhibitory activities”.
In the case of `NC(Cc1ccc(OCc2ccccc2)cn1)C(=O)Nc1ccc(CCCC(=O)NO)cc1` (stereo not shown) [Compound 5, 4-(4-(2-amino-3-(5-(benzyloxy)pyridin-2-yl)propanamido)phenyl)-N-hydroxybutanamide], the HDAC inhibitory activity [1] is reported as “showed HDAC inhibitory activities”.
`NC(Cc1ccc(OCc2ccccc2)cn1)C(=O)NCc1ccc(C(=O)NO)cc1` (stereo not shown) [Compound 8, 4-((2-amino-3-(5-(benzyloxy)pyridin-2-yl)-propanamido)methyl)-N-hydroxybenzamide trifluororoacetic acid] was tested, and the HDAC inhibitory activity [1] was “showed HDAC inhibitory activities”.
In the case of `NC(Cc1ccc(O)cn1)C(=O)Nc1ccc(CCCC(=O)NO)cc1` (stereo not shown) [Compound 6, 4-(4-(2-amino-3-(5-hydroxypyridin-2-yl)-propanamido)phenyl)-N-hydroxybutanamide], the HDAC inhibitory activity [1] is reported as “showed HDAC inhibitory activities”.
